Only a part is listed here, and it is no random draw. The calls were merged from several studies; some rest on single wells.
What was measured:
Details in all cases: stereoisomer not certain
[1] = biological target: T1, UniProt Q9WU94
T1 sequence (whole entry): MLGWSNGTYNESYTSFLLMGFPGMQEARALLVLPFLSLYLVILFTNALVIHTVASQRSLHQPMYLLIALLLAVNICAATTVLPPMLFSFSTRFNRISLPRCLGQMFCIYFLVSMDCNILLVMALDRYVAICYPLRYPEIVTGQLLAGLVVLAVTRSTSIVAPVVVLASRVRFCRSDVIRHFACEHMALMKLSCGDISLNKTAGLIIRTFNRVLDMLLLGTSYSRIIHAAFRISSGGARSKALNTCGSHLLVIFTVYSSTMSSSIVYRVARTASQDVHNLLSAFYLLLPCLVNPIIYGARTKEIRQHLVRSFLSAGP
How it was run: (§1)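 Each receptor–molecule pair is labelled responsive or non-responsive (inactive) according to whether the original authors judged the measured signal statistically different from baseline. The data were taken from the main text and supplementary material of published papers and checked for typos and inconsistencies. Assay methods differed by source, with transient luciferase assays in mammalian cell lines being common.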

Amino acid sequences for entries named in this document (tags omitted). Chains listed by the source or under a name are the forms on record and can include a tag or linker.
UniProt Q9R0K2, as listed by the source: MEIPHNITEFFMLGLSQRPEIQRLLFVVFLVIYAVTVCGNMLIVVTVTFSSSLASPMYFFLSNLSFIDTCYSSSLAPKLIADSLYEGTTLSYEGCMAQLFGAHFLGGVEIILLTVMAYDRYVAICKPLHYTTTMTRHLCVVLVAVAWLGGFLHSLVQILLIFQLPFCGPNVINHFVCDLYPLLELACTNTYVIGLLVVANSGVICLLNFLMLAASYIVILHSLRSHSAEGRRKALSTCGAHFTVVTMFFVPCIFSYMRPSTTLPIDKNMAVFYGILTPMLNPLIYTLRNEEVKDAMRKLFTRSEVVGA
UniProt Q9WVD9, as listed by the source: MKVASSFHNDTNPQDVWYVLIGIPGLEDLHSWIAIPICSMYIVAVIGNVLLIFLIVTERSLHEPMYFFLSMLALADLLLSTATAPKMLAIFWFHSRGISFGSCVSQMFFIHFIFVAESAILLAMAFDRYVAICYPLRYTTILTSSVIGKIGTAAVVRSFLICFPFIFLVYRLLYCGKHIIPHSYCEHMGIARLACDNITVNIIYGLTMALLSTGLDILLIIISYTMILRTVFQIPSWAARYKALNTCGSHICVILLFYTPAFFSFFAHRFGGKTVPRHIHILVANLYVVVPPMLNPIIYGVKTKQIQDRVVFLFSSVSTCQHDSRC
UniProt Q9WVD7, as listed by the source: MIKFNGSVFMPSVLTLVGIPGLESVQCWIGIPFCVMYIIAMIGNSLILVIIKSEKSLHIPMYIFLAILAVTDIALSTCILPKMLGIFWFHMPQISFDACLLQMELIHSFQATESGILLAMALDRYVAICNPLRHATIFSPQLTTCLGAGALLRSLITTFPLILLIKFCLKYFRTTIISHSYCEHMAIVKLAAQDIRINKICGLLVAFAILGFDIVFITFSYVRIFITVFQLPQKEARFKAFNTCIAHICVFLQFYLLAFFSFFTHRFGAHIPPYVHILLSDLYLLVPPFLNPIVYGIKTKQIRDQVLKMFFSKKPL

[2] = biological target: T2, UniProt Q99NH4
T2 sequence (whole entry): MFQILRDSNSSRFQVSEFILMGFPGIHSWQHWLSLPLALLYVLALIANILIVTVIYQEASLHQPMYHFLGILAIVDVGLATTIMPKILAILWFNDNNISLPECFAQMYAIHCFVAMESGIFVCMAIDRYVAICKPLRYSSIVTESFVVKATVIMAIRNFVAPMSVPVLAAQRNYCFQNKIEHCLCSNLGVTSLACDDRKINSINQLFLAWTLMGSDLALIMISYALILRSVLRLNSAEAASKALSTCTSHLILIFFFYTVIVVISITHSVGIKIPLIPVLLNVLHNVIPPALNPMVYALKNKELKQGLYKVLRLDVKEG
How it was run: as §1

[3] = biological target: T3, UniProt Q9EPN9
T3 sequence (whole entry): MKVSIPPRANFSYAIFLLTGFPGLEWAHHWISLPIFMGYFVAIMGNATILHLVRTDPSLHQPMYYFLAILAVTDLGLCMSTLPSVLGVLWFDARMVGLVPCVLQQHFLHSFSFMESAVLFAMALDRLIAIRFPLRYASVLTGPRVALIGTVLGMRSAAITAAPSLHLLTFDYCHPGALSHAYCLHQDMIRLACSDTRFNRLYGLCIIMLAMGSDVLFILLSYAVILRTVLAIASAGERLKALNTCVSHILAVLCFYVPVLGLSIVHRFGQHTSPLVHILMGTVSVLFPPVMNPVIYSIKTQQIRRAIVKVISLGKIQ
How it was run: as §1

[4] = biological target: UniProt Q9R0K2
How it was run: as §1

[5] = biological target: T4, UniProt Q9WU86
T4 sequence (whole entry): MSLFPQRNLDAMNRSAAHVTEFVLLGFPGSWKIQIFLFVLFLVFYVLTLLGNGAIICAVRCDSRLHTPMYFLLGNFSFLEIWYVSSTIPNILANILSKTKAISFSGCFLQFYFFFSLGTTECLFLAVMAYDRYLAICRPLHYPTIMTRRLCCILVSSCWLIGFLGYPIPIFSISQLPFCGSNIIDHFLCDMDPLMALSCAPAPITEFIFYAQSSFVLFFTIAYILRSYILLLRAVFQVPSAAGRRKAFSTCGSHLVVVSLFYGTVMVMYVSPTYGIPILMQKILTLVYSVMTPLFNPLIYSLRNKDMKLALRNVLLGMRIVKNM
How it was run: as §1

[6] = biological target: UniProt Q9WVD9
How it was run: as §1

[7] = biological target: T5, UniProt Q9WVN5
T5 sequence (whole entry): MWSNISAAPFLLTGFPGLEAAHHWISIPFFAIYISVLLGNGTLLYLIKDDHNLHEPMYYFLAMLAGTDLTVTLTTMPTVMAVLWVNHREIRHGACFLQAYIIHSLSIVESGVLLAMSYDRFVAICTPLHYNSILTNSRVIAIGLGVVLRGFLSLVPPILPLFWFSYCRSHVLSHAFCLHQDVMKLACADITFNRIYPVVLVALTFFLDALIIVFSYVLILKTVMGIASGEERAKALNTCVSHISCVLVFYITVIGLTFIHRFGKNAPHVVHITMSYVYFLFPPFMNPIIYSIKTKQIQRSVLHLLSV
How it was run: as §1

[8] = biological target: UniProt Q9WVD7
How it was run: as §1
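Further: active if original authors judged signal statistically different from baseline.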

| Compound | odorant receptor agonist call [1] | odorant receptor agonist call [2] | odorant receptor agonist call [3] | odorant receptor agonist call [4] | odorant receptor agonist call [5] | odorant receptor agonist call [6] | odorant receptor agonist call [7] | odorant receptor agonist call [8] |
| --- | --- | --- | --- | --- | --- | --- | --- | --- |
| CC(C)CC(=O)O | inactive |  |  |  |  |  |  |  |
| CCCCCCCCCC=O |  | inactive | inactive | inactive | inactive | inactive | inactive |  |
| CCCCCCCCC=O | inactive | inactive | inactive | inactive | inactive | inactive | inactive |  |
| CC(C)(O)CCCC1=CCC(C=O)CC1 (centres undefined) |  |  | inactive | inactive | inactive | inactive | inactive |  |
| C=C(C)C1CC=C(C)C(=O)C1 (centres undefined) | inactive |  | inactive | inactive | inactive | inactive | inactive |  |
| CC12CCC(C1)C(C)(C)C2=O (centres undefined) |  |  | inactive | inactive | inactive | inactive | inactive |  |
| O=C1CCCCC1 |  |  | inactive | inactive | inactive | inactive | inactive |  |
| CCCCCOC(C)=O | inactive |  |  |  |  |  |  |  |
| CCCCCC(=O)O | inactive | inactive | inactive | inactive | inactive | inactive | active | inactive |
| CCCCCCC=O | inactive | inactive | inactive | inactive | inactive | inactive | inactive |  |
| CC(=O)c1ccccc1 | inactive |  | inactive | inactive | active | inactive | inactive |  |
| CCCCCC(C)=O |  |  | inactive | inactive | inactive | inactive | inactive |  |
| C=CCc1ccc(O)c(OC)c1 | inactive |  |  |  |  |  |  |  |
| CCCC(=O)O | inactive | inactive |  |  |  |  |  | inactive |
| CCCCCCCC=O |  | active | inactive | inactive | inactive | inactive | inactive |  |
| CCCCCCCCCCC=O |  | active |  |  |  |  |  |  |
| CCCCO |  | inactive |  |  |  |  |  |  |

Some of the entries above, set out differently.
Compound,odorant receptor agonist call [1],odorant receptor agonist call [2],odorant receptor agonist call [3],odorant receptor agonist call [4],odorant receptor agonist call [5],odorant receptor agonist call [6],odorant receptor agonist call [7],odorant receptor agonist call [8]
C=CCc1ccc(O)c(OC)c1,inactive,,,,,,,
CCCCCCCC=O,,active,inactive,inactive,inactive,inactive,inactive,

— the M2OR odorant receptor database
